Reference: paper PMC5654745
No constants are given. Whether binding was seen depends on the method and setting. Binding seen in cells or lysates may run through a third protein. Some binding calls cover weakened binding; strength is not graded here. Sequences can lack the tags named with a protein. One block for each binder: values may come before it.

Assays:
[1] = molecular target: T1, FLAG-Set1 (full-length) (S. cerevisiae) (UniProt P38827); test: co-IP; FLAG-Set1 (full-length or fragment) co-expressed with untagged Set1C subunits in Sf9 cells by baculovirus co-infection; complexes affinity purified on M2 (anti-FLAG) agarose; SDS-PAGE and Coomassie blue staining
T1 sequence: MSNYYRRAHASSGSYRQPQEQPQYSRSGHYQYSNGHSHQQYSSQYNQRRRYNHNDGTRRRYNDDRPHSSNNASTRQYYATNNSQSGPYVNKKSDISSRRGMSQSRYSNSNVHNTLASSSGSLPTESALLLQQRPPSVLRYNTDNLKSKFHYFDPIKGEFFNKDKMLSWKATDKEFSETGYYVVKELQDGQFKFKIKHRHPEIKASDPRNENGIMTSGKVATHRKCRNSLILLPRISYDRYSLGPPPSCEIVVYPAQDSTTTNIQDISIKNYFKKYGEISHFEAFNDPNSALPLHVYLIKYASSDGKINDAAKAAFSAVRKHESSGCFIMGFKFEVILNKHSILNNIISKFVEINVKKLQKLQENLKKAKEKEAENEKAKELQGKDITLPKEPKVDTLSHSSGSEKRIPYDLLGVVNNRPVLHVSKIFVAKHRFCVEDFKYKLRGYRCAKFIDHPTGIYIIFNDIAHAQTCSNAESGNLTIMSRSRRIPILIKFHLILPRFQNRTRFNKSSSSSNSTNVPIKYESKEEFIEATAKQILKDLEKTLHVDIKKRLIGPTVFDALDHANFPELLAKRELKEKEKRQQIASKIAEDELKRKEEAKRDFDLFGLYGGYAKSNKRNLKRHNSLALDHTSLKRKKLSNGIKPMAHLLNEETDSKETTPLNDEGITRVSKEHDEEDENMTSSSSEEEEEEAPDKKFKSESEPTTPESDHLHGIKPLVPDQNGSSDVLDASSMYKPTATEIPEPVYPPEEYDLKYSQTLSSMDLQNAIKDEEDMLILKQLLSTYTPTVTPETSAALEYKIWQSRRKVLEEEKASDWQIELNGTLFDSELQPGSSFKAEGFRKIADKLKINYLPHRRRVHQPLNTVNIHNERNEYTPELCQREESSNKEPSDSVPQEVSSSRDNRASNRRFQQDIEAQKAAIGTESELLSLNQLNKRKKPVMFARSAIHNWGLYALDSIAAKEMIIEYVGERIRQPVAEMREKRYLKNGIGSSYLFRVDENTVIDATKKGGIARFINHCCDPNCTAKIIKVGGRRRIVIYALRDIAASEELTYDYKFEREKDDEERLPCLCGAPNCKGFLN

[2] = molecular target: T2, FLAG-Set1 C762 fragment (S. cerevisiae) (UniProt P38827); test: as above
T2 sequence: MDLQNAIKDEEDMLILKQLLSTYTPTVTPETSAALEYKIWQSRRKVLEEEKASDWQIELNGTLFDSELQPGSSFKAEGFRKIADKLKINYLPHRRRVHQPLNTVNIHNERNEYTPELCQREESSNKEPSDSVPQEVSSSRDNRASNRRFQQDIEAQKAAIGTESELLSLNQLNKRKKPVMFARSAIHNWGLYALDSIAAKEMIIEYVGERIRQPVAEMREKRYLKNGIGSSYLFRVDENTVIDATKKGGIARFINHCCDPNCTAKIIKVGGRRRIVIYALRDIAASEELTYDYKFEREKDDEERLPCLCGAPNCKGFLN

- binding [1]: binds
B1: Swd2 (protein, UniProt P36104 1-329)
chain: MTTVSINKPNLLKFKHVKSFQPQEKDCGPVTSLNFDDNGQFLLTSSSNDTMQLYSATNCKFLDTIASKKYGCHSAIFTHAQNECIYSSTMKNFDIKYLNLETNQYLRYFSGHGALVNDLKMNPVNDTFLSSSYDESVRLWDLKISKPQVIIPSLVPNCIAYDPSGLVFALGNPENFEIGLYNLKKIQEGPFLIIKINDATFSQWNKLEFSNNGKYLLVGSSIGKHLIFDAFTGQQLFELIGTRAFPMREFLDSGSACFTPDGEFVLGTDYDGRIAIWNHSDSISNKVLRPQGFIPCVSHETCPRSIAFNPKYSMFVTADETVDFYVYDE

- binding [1]: binds
- binding [2]: binds
B2: Sdc1 (protein, UniProt Q03323 1-175)
chain: MNESENSPQHNEVTVPMVEDTSSNADIPMEQIQREDNKNYDKHDNECFDMNGNHNNNSDNLQFDSVPSSATKDLKNIKSVTNQNVKIEESSSTNSVIEESSEPKISKLENVNLAATVGGSQTRKYLNTNVTPHLLAGMRLIAVQQPEDPLRVLGEYLIEQSNILKSGEKESNASK

- binding [1]: binds
- binding [2]: binds
B3: Bre2 (protein, UniProt P43132 1-505)
chain: MKLGIIPYQEGTDIVYKNALQGQQEGKRPNLPQMEATHQIKSSVQGTSYEFVRTEDIPLNRRHFVYRPCSANPFFTILGYGCTEYPFDHSGMSVMDRSEGLSISRDGNDLVSVPDQYGWRTARSDVCIKEGMTYWEVEVIRGGNKKFADGVNNKENADDSVDEVQSGIYEKMHKQVNDTPHLRFGVCRREASLEAPVGFDVYGYGIRDISLESIHEGKLNCVLENGSPLKEGDKIGFLLSLPSIHTQIKQAKEFTKRRIFALNSHMDTMNEPWREDAENGPSRKKLKQETTNKEFQRALLEDIEYNDVVRDQIAIRYKNQLFFEATDYVKTTKPEYYSSDKRERQDYYQLEDSYLAIFQNGKYLGKAFENLKPLLPPFSELQYNEKFYLGYWQHGEARDESNDKNTTSAKKKKQQQKKKKGLILRNKYVNNNKLGYYPTISCFNGGTARIISEEDKLEYLDQIRSAYCVDGNSKVNTLDTLYKEQIAEDIVWDIIDELEQIALQQ

- binding [1]: binds
- binding [2]: binds
B4: Swd1 (protein, UniProt P39706 1-426)
chain: MNILLQDPFAVLKEHPEKLTHTIENPLRTECLQFSPCGDYLALGCANGALVIYDMDTFRPICVPGNMLGAHVRPITSIAWSPDGRLLLTSSRDWSIKLWDLSKPSKPLKEIRFDSPIWGCQWLDAKRRLCVATIFEESDAYVIDFSNDPVASLLSKSDEKQLSSTPDHGYVLVCTVHTKHPNIIIVGTSKGWLDFYKFHSLYQTECIHSLKITSSNIKHLIVSQNGERLAINCSDRTIRQYEISIDDENSAVELTLEHKYQDVINKLQWNCILFSNNTAEYLVASTHGSSAHELYIWETTSGTLVRVLEGAEEELIDINWDFYSMSIVSNGFESGNVYVWSVVIPPKWSALAPDFEEVEENVDYLEKEDEFDEVDEAEQQQGLEQEEEIAIDLRTREQYDVRGNNLLVERFTIPTDYTRIIKMQSS

- binding [1]: binds
- binding [2]: binds
B5: Spp1 (protein, UniProt Q03012 1-353)
chain: MSLPQWCPPHSTLKRNPTTGEDVYCICKRPDYGELMVGCDGCDDWFHFTCLHIPEQFKDLVFSFYCPYCQAGITGKNKDAIINGEGSLPKTLWKRKCRISDCYKPCLQDSKYCSEEHGREFVNDIWSRLKTDEDRAVVKKMVEQTGHIDKFKKFGQLDFIDNNIVVKTDDEKEIFDQIVVRDMTLKTLEDDLQEVQEISLPLFKKKLELLEVYLGWLDNVYTEMRKLDDDAASHVECGKEDSKGTKRKKKKNSSRSRARKNICGYCSTYERIPCSVEEFVRDFGSNEEATKIHEVCTKWKCNRHLDWVSTNQEQYLQQIDSLESMQERLQHLIQARKKQLNIQYYEEILRRGL

- binding [1]: binds
B6: Shg1 (protein, UniProt P38337 1-142)
chain: MAYNQEDSKRLSDKYKKEGHFDKLKREILSNPWNNTEENSESFEQALRKRVASTVKEMVNEDEELIFKNRGLTSALIESQLVKDNYLKLGSKMEGDNGDGEKKFDLDVYVRSKLQDPKLLEMIKGQLQETLNSYEEEANGST

- binding [1]: binds
- binding [2]: binds
B7: Swd3 (protein, UniProt P38123 1-315)
chain: MFQFVTPVGTQNGLKATCAKISPDGQFLAITQGLNILIYDINRRTVSQTLVTSHARPFSELCWSPDGQCIATASDDFSVEIIHLSYGLLHTFIGHTAPVISLTFNRKGNLLFTSSMDESIKIWDTLNGSLMKTISAHSEAVVSVDVPMNDSSILSSGSYDGLIRIFDAETGHCLKTLTYDKDWKRENGVVPISQVKFSENARYLLVKSLDGVVKIWDCIGGCVVRTFQVQPLEKGVLHHSCGMDFLNPEDGSTPLVISGYENGDIYCWNSDTKSLLQLLDGSLYHHSSPVMSIHCFGNIMCSLALNGDCCLWRWV
